Data taken from patent US20120164159A1 (OPSONA THERAPEUTICS, published 2012).
Results are given in words; binding and its absence hold for the method and conditions named. A result given as binding can be weak or reduced; the word gives no strength.

How the values were obtained:
[1] = target: porcine Toll-like Receptor 2 expressed on porcine PBMCs (pig); assay: flow cytometry on pig PBMCs, PE anti-human IgG4
[2] = target: rat Toll-like Receptor 2 expressed on rat alveolar macrophages (NR8383) (rat); assay: flow cytometry on NR8383 cells, anti-human IgG4 PE
[3] = target: porcine Toll-like Receptor 2 expressed on porcine PBMCs (pig); assay: flow cytometry on pig PBMCs, RPE anti-human IgG4
[4] = target: rat Toll-like Receptor 2 expressed on rat alveolar macrophages (NR8383) (rat); assay: flow cytometry on NR8383 cells, RPE anti-human IgG4

binding [1]: binds
binding [2]: binds
binding [3]: binds
binding [4]: binds
B1: OPN-305 fully humanised anti-Toll-like Receptor 2 monoclonal antibody (antibody, human IgG4 S228P, kappa, V domains shown)
VH: QVQLVQSGSELKKPGASVKLSCKASGFTFTTYGINWVRQAPGQGLEWIGWIYPRDGSTNFNENFKDRATITVDTSASTAYMELSSLRSEDTAVYFCARLTGGTFLDYWGQGTTVTVSS
VL: DIVLTQSPATLSLSPGERATLSCRASESVEYYGTSLMQWYQQKPGQPPKLLIFGASNVESGVPDRFSGSGSGTDFTLKISRVEAEDVGMYFCQQSRKLPWTFGGGTKVEIKR
notes: made in NS0 cells; also called variant 21
